PubChem BioAssay AID1259308 – NCATS – 2017
Purpose: 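Genes whose loss raises luciferase production in HEK293 cells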 (primary screen). System: human HEK293 embryonic kidney cells stably expressing firefly luciferase (HEK-CMV-Luc2-Hygro). Reagents: single siRNA against human genes, 0.8 pmol siRNA per well. Timing: 72 h. Read-out: 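Luciferase light (ONE-Glo) measured on one replicate plate set and viability (CellTiter-Glo) on the other, scaled to a negative control siRNA, with robust z-scores and luciferase per cell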. Scale: total luciferase, z-score: higher = more reporter protein produced. Rule for the call: 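Active when the median/MAD z-score for overall luciferase is greater than 3; a gene was taken forward for validation with new siRNAs if at least two of its three siRNAs passed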. Meaning of the calls: active = raised luciferase; inactive = no rise.
The deposit covers about 59,000 reagents; this is a part drawn at random. In the full data, about 1,510 (2.6%) were called active. 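Calls use total luciferase alone and ignore viability, so some active siRNAs may act by altering cell number.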 The numbers tell different reagents against one gene apart. Further read-outs or replicates are left out here. Reagent sequences are not shown.

total luciferase, z-score, by gene and reagent
PLCL2: #1 -0.21 inactive; #2 -0.0179 inactive; #3 -2.1 inactive
PEX11G: #1 1.87 inactive; #2 -0.765 inactive; #3 2.12 inactive
BRPF3: #1 -0.011 inactive; #2 -0.674 inactive; #3 0.0446 inactive
MUC21: #1 -0.813 inactive; #2 -0.176 inactive; #3 0.302 inactive
NTN5: #1 0.165 inactive; #2 -0.133 inactive; #3 2.45 inactive
TSPO2: #1 1.44 inactive; #2 0.406 inactive; #3 -0.998 inactive
LRP4: #1 0.658 inactive; #2 0.784 inactive; #3 1.43 inactive
DDX19B: #1 0.101 inactive; #2 -0.45 inactive; #3 -1.68 inactive
MYO1E: #1 1.35 inactive; #2 0.299 inactive; #3 0.227 inactive
IPMK: #1 -0.0726 inactive; #2 0.927 inactive; #3 0.271 inactive
DNAJC22: #1 0.376 inactive; #2 2.12 inactive; #3 1.74 inactive
DNLZ: #1 -0.695 inactive; #2 -0.492 inactive; #3 -0.22 inactive
CRACR2B: #1 -0.549 inactive; #2 7.42 active; #3 -1.5 inactive
ZPBP: #1 -0.629 inactive; #2 -0.633 inactive; #3 0.737 inactive
MST1: #1 -1.9 inactive; #2 -0.387 inactive; #3 0.233 inactive
ZNF852: #1 0.761 inactive; #2 0.0425 inactive; #3 -2.39 inactive
ITSN2: #1 0.408 inactive; #2 0.0918 inactive; #3 -0.916 inactive
RGS14: #1 -0.421 inactive; #2 -1.12 inactive; #3 -0.756 inactive
CD72: #1 0.625 inactive; #2 -2.06 inactive; #3 0.787 inactive
VWDE: #1 -0.592 inactive; #2 0.263 inactive; #3 1.12 inactive
TMEM171: #1 -1.1 inactive; #2 0.136 inactive; #3 0.392 inactive
RAB3IL1: #1 -0.275 inactive; #2 -0.114 inactive; #3 -1.89 inactive
RPL22P11: #1 -0.679 inactive; #2 -0.645 inactive; #3 -0.716 inactive
DDI1: #1 1.46 inactive; #2 2.14 inactive; #3 0.976 inactive
ZNF385C: #1 -1.1 inactive; #2 -0.463 inactive; #3 1.5 inactive

Reagents above called active, once more:
total luciferase, z-score, by gene and reagent
CRACR2B: #2 7.42 active
